Laboratory results from the supplement of paper PMC8728848.
Some of the results follow.

Experiments:
Assay in all cases: glycan array binding signal (z-score within array); higher = stronger binding
Settings in all cases: glycan notation: IUPAC condensed, linker removed
[1] = biological target: Gal(a1-3)Gal(b1-4)GlcNAc(b1-2)Man
Method in brief: (§1)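 The binding signal is a Z-score computed within each array and averaged over linkers. Arrays of the same protein sequence at different concentrations or buffers were also averaged together. Data originate from 3228 arrays in the Consortium for Functional Glycomics database, kept only where the protein sequence was available.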

[2] = biological target: Gal(a1-3)Gal(b1-4)GlcNAc(b1-2)Man(a1-3)[Gal(a1-3)Gal(b1-4)GlcNAc(b1-2)Man(a1-6)]Man(b1-4)GlcNAc(b1-4)GlcNAc
Method in brief: as §1

[3] = biological target: Gal(a1-3)Gal(b1-4)GlcNAc(b1-3)GalNAc
Method in brief: as §1

[4] = biological target: Gal(a1-3)Gal(b1-4)GlcNAc(b1-6)GalNAc
Method in brief: as §1

[5] = biological target: Gal(a1-3)Gal(b1-4)[Fuc(a1-3)]GlcNAc
Method in brief: as §1

[6] = biological target: Gal(a1-3)Gal(b1-4)[Fuc(a1-3)]GlcNAc(b1-2)Man(a1-3)[Gal(a1-3)Gal(b1-4)[Fuc(a1-3)]GlcNAc(b1-2)Man(a1-6)]Man(b1-4)GlcNAc(b1-4)GlcNAc
Method in brief: as §1

Gal(a1-3)GalNAc = biological target: Gal(a1-3)GalNAc
Method in brief: as §1

[7] = biological target: Gal(a1-3)[Gal(a1-4)]Gal(b1-4)GlcNAc
Method in brief: as §1

[8] = biological target: Gal(a1-4)Gal(b1-3)GlcNAc(b1-2)Man(a1-3)[Gal(a1-4)Gal(b1-3)GlcNAc(b1-2)Man(a1-6)]Man(b1-4)GlcNAc(b1-4)GlcNAc
Method in brief: as §1

Gal(a1-4)Gal(b1-4)Glc = biological target: Gal(a1-4)Gal(b1-4)Glc
Method in brief: as §1

Gal(a1-4)Gal(b1-4)GlcNAc = biological target: Gal(a1-4)Gal(b1-4)GlcNAc
Method in brief: as §1

[9] = biological target: Gal(a1-4)Gal(b1-4)GlcNAc(b1-2)Man(a1-3)[Gal(a1-4)Gal(b1-4)GlcNAc(b1-2)Man(a1-6)]Man(b1-4)GlcNAc(b1-4)GlcNAc
Method in brief: as §1

[10] = biological target: Gal(a1-4)Gal(b1-4)GlcNAc(b1-3)Gal(b1-4)Glc
Method in brief: as §1

Gal(a1-4)GlcNAc = biological target: Gal(a1-4)GlcNAc
Method in brief: as §1

Gal(a1-6)Glc = biological target: Gal(a1-6)Glc
Method in brief: as §1

Gal(b1-2)Gal = biological target: Gal(b1-2)Gal
Method in brief: as §1

Gal(b1-3)Gal = biological target: Gal(b1-3)Gal
Method in brief: as §1

Gal(b1-3)Gal(b1-4)GlcNAc = biological target: Gal(b1-3)Gal(b1-4)GlcNAc
Method in brief: as §1

Gal(b1-3)GalNAc = biological target: Gal(b1-3)GalNAc
Method in brief: as §1

[11] = biological target: Gal(b1-3)GalNAc(a1-3)[Fuc(a1-2)]Gal(b1-4)Glc
Method in brief: as §1

[12] = biological target: Gal(b1-3)GalNAc(a1-3)[Fuc(a1-2)]Gal(b1-4)GlcNAc
Method in brief: as §1

Gal(b1-3)GalNAc(b1-3)Gal = biological target: Gal(b1-3)GalNAc(b1-3)Gal
Method in brief: as §1

[13] = biological target: Gal(b1-3)GalNAc(b1-3)Gal(a1-4)Gal(b1-4)Glc
Method in brief: as §1

[14] = biological target: Gal(b1-3)GalNAc(b1-4)Gal(b1-4)Glc
Method in brief: as §1

[15] = biological target: Gal(b1-3)GalNAc(b1-4)[Neu5Ac(a2-3)]Gal(b1-4)Glc
Method in brief: as §1

Gal(b1-3)GlcNAc = biological target: Gal(b1-3)GlcNAc
Method in brief: as §1

[16] = biological target: Gal(b1-3)GlcNAc(a1-3)Gal(b1-4)GlcNAc
Method in brief: as §1

[17] = biological target: Gal(b1-3)GlcNAc(a1-6)Gal(b1-4)GlcNAc
Method in brief: as §1

Gal(b1-3)GlcNAc(b1-2)Man = biological target: Gal(b1-3)GlcNAc(b1-2)Man
Method in brief: as §1

[18] = biological target: Gal(b1-3)GlcNAc(b1-2)Man(a1-3)[Gal(b1-3)GlcNAc(b1-2)Man(a1-6)]Man(b1-4)GlcNAc(b1-4)GlcNAc
Method in brief: as §1

[19] = biological target: Gal(b1-3)GlcNAc(b1-2)Man(a1-3)[Gal(b1-3)GlcNAc(b1-2)Man(a1-6)]Man(b1-4)GlcNAc(b1-4)[Fuc(a1-6)]GlcNAc
Method in brief: as §1

[20] = biological target: Gal(b1-3)GlcNAc(b1-2)Man(a1-3)[GlcNAc(b1-4)][Gal(b1-3)GlcNAc(b1-2)Man(a1-6)]Man(b1-4)GlcNAc(b1-4)GlcNAc
Method in brief: as §1

[21] = biological target: Gal(b1-3)GlcNAc(b1-2)[Gal(b1-3)GlcNAc(b1-6)]Man(a1-6)[Gal(b1-3)GlcNAc(b1-2)Man(a1-3)]Man(b1-4)GlcNAc(b1-4)GlcNAc
Method in brief: as §1

[22] = biological target: Gal(b1-3)GlcNAc(b1-3)Gal(b1-3)GlcNAc
Method in brief: as §1

[23] = biological target: Gal(b1-3)GlcNAc(b1-3)Gal(b1-4)Glc
Method in brief: as §1

[24] = biological target: Gal(b1-3)GlcNAc(b1-3)Gal(b1-4)GlcNAc
Method in brief: as §1

[25] = biological target: Gal(b1-3)GlcNAc(b1-3)Gal(b1-4)GlcNAc(b1-2)Man(a1-3)[Gal(b1-3)GlcNAc(b1-3)Gal(b1-4)GlcNAc(b1-2)Man(a1-6)]Man(b1-4)GlcNAc(b1-4)GlcNAc
Method in brief: as §1

[26] = biological target: Gal(b1-3)GlcNAc(b1-3)Gal(b1-4)GlcNAc(b1-2)[Gal(b1-3)GlcNAc(b1-3)Gal(b1-4)GlcNAc(b1-6)]Man(a1-6)[Gal(b1-3)GlcNAc(b1-3)Gal(b1-4)GlcNAc(b1-2)Man(a1-3)]Man(b1-4)GlcNAc(b1-4)[Fuc(a1-6)]GlcNAc
Method in brief: as §1

[27] = biological target: Gal(b1-3)GlcNAc(b1-3)Gal(b1-4)GlcNAc(b1-3)Gal(b1-4)GlcNAc(b1-2)[Gal(b1-3)GlcNAc(b1-3)Gal(b1-4)GlcNAc(b1-3)Gal(b1-4)GlcNAc(b1-6)]Man(a1-6)[Gal(b1-3)GlcNAc(b1-3)Gal(b1-4)GlcNAc(b1-3)Gal(b1-4)GlcNAc(b1-2)Man(a1-3)]Man(b1-4)GlcNAc(b1-4)[Fuc(a1-6)]GlcNAc
Method in brief: as §1

[28] = biological target: Gal(b1-3)GlcNAc(b1-3)Gal(b1-4)GlcNAc(b1-6)[Gal(b1-3)GlcNAc(b1-3)]Gal(b1-4)Glc
Method in brief: as §1

[29] = biological target: Gal(b1-3)GlcNAc(b1-3)Gal(b1-4)[Fuc(a1-3)]GlcNAc
Method in brief: as §1

[30] = biological target: Gal(b1-3)GlcNAc(b1-3)Gal(b1-4)[Fuc(a1-3)]GlcNAc(b1-6)[Gal(b1-3)GlcNAc(b1-3)]Gal(b1-4)Glc
Method in brief: as §1

[31] = biological target: Gal(b1-3)GlcNAc(b1-3)GalNAc
Method in brief: as §1

[32] = biological target: Gal(b1-3)GlcNAc(b1-6)Gal(b1-4)GlcNAc
Method in brief: as §1

[33] = biological target: Gal(b1-3)GlcNAc(b1-6)GalNAc
Method in brief: as §1

B1: Sp8391B-bot-388-20-388 (Bacteroides ovatus) (protein)
chain: GCQNNDENEQHYDNKLFISASNFTKEILFKAGDTNVETGLSVAIAKPEEHDIKVTMSPAPELLSTYKLAYYDETAVLLSEEHYSMPETSTTIKSGSIVSPELPIEFINTGELDIKTTYVLPVTIKSVEGIGVLQSAKTYYYVFRGASLINVVCNISRNRAYPDFKNDSKFNNLTENTMEILFKANSFPNTLNTLMGIESNYLLRIGDATIPNNQLQVATSVNNCTSADLQLESGKWYHVAVAFNKGNVKVYINGVEKLSGSTGKSSVSLGAKHTNEEDGSRCFWVGYSYKDDRYFDGVVSEVRIWNRALTAEEIQATNHFYTIEPESEGLIAYWKFDEGSGTVAKDYSVSGYDLTIEKEPKWESVSLPQ
Q: B1 was tested. Which “glycan array binding signal (z-score)” value [1] did it give?
A: 0.2

Q: What about the “glycan array binding signal (z-score)” value [2] of the same binder?
A: -0.179

Q: And the “glycan array binding signal (z-score)” value [3]?
A: -0.389

Q: And the “glycan array binding signal (z-score)” value [4]?
A: 0.211

Q: What about the “glycan array binding signal (z-score)” value [5] of the same binder?
A: -0.616

Q: What about the “glycan array binding signal (z-score)” value [6] of the same binder?
A: 1.6

Q: What about the “glycan array binding signal (z-score)” value (Gal(a1-3)GalNAc) of the same binder?
A: -0.069

Q: And the “glycan array binding signal (z-score)” value [7]?
A: -0.251

Q: And the “glycan array binding signal (z-score)” value [8]?
A: 2.6

Q: What about the “glycan array binding signal (z-score)” value (Gal(a1-4)Gal(b1-4)Glc) of the same binder?
A: 0.623

Q: And the “glycan array binding signal (z-score)” value (Gal(a1-4)Gal(b1-4)GlcNAc)?
A: 0.049

Q: What about the “glycan array binding signal (z-score)” value [9] of the same binder?
A: 0.691

Q: And the “glycan array binding signal (z-score)” value [10]?
A: -0.875

Q: What about the “glycan array binding signal (z-score)” value (Gal(a1-4)GlcNAc) of the same binder?
A: -0.289

Q: And the “glycan array binding signal (z-score)” value (Gal(a1-6)Glc)?
A: 0.597

Q: What about the “glycan array binding signal (z-score)” value (Gal(b1-2)Gal) of the same binder?
A: 0.024

Q: What about the “glycan array binding signal (z-score)” value (Gal(b1-3)Gal) of the same binder?
A: -0.179

Q: What about the “glycan array binding signal (z-score)” value (Gal(b1-3)Gal(b1-4)GlcNAc) of the same binder?
A: -0.515

Q: What about the “glycan array binding signal (z-score)” value (Gal(b1-3)GalNAc) of the same binder?
A: 0.027

Q: And the “glycan array binding signal (z-score)” value [11]?
A: 0.361

Q: And the “glycan array binding signal (z-score)” value [12]?
A: -0.249

Q: And the “glycan array binding signal (z-score)” value (Gal(b1-3)GalNAc(b1-3)Gal)?
A: -0.301

Q: What about the “glycan array binding signal (z-score)” value [13] of the same binder?
A: -0.745

Q: What about the “glycan array binding signal (z-score)” value [14] of the same binder?
A: 0.437

Q: And the “glycan array binding signal (z-score)” value [15]?
A: -0.428

Q: And the “glycan array binding signal (z-score)” value (Gal(b1-3)GlcNAc)?
A: -0.664

Q: What about the “glycan array binding signal (z-score)” value [16] of the same binder?
A: -1.02

Q: And the “glycan array binding signal (z-score)” value [17]?
A: -0.85

Q: What about the “glycan array binding signal (z-score)” value (Gal(b1-3)GlcNAc(b1-2)Man) of the same binder?
A: 0.601

Q: And the “glycan array binding signal (z-score)” value [18]?
A: 3.77

Q: And the “glycan array binding signal (z-score)” value [19]?
A: 0.143

Q: And the “glycan array binding signal (z-score)” value [20]?
A: 0.252

Q: And the “glycan array binding signal (z-score)” value [21]?
A: 0.113

Q: And the “glycan array binding signal (z-score)” value [22]?
A: -0.653

Q: What about the “glycan array binding signal (z-score)” value [23] of the same binder?
A: 0.105

Q: And the “glycan array binding signal (z-score)” value [24]?
A: -0.661

Q: And the “glycan array binding signal (z-score)” value [25]?
A: 1.6

Q: What about the “glycan array binding signal (z-score)” value [26] of the same binder?
A: -0.16

Q: What about the “glycan array binding signal (z-score)” value [27] of the same binder?
A: -0.127

Q: And the “glycan array binding signal (z-score)” value [28]?
A: 0.879

Q: And the “glycan array binding signal (z-score)” value [29]?
A: 0.799

Q: What about the “glycan array binding signal (z-score)” value [30] of the same binder?
A: 12.8

Q: What about the “glycan array binding signal (z-score)” value [31] of the same binder?
A: -0.114

Q: And the “glycan array binding signal (z-score)” value [32]?
A: -0.02

Q: And the “glycan array binding signal (z-score)” value [33]?
A: 0.299
